Reference: patent publication US20100298217A1 (published 2010)
Residue numbers refer to the chain shown, from its start. No constants are given. Whether binding was seen depends on the method and setting. Some results given as binding are weak or reduced against the parent protein; the word gives no strength.

Key:
[1] = biological target: T1, mouse CSF-1R C432S/C439S mutant expressed on M-/- macrophages (M-/-.C432/439SCSF-1R cells) (mouse) (UniProt P09581); test: initial rate of CSF-1 binding to upregulated cells, FIG. 14
T1 sequence: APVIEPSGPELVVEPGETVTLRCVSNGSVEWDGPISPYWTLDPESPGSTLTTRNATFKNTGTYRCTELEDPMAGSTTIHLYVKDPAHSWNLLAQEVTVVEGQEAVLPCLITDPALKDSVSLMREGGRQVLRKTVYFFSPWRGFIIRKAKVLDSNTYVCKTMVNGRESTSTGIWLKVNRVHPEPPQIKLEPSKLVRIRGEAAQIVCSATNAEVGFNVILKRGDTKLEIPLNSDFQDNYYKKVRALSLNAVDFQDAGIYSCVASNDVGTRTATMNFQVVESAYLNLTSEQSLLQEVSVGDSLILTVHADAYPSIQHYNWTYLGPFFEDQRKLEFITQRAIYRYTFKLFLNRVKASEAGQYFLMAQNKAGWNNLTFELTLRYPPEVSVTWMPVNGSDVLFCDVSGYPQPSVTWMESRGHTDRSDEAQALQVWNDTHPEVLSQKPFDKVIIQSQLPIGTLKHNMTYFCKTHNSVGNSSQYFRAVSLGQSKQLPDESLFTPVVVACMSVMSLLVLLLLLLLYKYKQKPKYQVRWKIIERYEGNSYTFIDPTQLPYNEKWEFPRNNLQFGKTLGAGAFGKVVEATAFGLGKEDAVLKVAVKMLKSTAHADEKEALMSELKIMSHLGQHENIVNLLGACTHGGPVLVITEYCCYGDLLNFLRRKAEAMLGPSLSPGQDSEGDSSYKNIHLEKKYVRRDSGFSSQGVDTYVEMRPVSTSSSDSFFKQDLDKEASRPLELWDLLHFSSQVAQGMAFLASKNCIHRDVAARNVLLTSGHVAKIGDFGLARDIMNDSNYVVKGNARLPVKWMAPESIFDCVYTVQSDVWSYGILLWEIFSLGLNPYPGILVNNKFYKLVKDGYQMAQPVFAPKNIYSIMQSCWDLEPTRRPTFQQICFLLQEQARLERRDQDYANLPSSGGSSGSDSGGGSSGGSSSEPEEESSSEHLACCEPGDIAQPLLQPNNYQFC

[2] = biological target: T2, wild-type mouse CSF-1R expressed on M-/- macrophages (M-/-.WTCSF-1R cells) (mouse) (UniProt P09581); test: as above
T2 sequence: T1 sequence with S413C, S420C

[3] = biological target: T1, mouse CSF-1R C432S/C439S mutant expressed on M-/- macrophages (M-/-.C432/439SCSF-1R cells) (mouse); test: CSF-1 binding to cells carrying the receptor, summed up in the Discussion of Example 2
[4] = biological target: T1, mouse CSF-1R C432S/C439S mutant expressed on M-/- macrophages (M-/-.C432/439SCSF-1R cells) (mouse); test: cell surface CSF-1 24 h after removal of human CSF-1, FIG. 13

binding [1]: binds
binding [2]: binds
binding [3]: binds
binding [4]: binds
B1: purified human recombinant CSF-1 (ligand, UniProt P09603 36-253, looked up)
chain: SEYCSHMIGSGHLQSLQRLIDSQMETSCQITFEFVDQEQLKDPVCYLKKAFLLVQDIMEDTMRFRDNTPNAIAIVQLQELSLRLKSCFTKDYEEHDKACVRTFYETPLQLLEKVKNVFNETKNLLDKDWNIFSKNCNNSFAECSSQDVVTKPDCNCLYPKAIPSSDPASVSPHQPLAPSMAPVAGLTWEDSEGTEGSSLLPGEQPLHTVDPGSAKQRP
notes: also called human CSF-1; colony stimulating factor-1
